Assay results from patent publication US11143649B2, “Free-solution response function interferometry” (VANDERBILT UNIVERSITY, priority 2016, dated 2021).

System: Recoverin
Assay: BSI free-solution binding assay
Experimental: None have an indefinite shelf life.
Several approaches can be used to find this value.
Independent of this prediction, free-solution measurements were performed with BSI to determine the KD for both the recoverin and CAII systems. The saturation isotherm binding curves for these experiments are presented as blue lines in FIG. 15A and FIG. 15B. To further illustrate the correlation between measured and estimated FreeSRF, χexp values were plotted on FIG. 13A and FIG. 13B showing where they lie on the training-set line.

[Ca+2] [Ca^2+]
BSI ΔRIU (binding signal, receptor Recoverin): 4.42E−05 RIU | Experimental Chi (RIU/M) (molar refractometry from ρexp, β and CBmax): 78.0 RIU/M
